Test results from article PMC10445734.
No constants are given. Whether binding was seen depends on the method and setting. Binding seen in cells or lysates may run through a third protein. Binding can be weak; no strength is given.

Experiments:
Flo-2-3xHA (Drosophila) = target: T1, Flo-2-3xHA (Drosophila) (UniProt O61492); experiment: co-IP; Drosophila S2R+ cells transiently transfected with HA-tagged candidate protein and Myc-tagged Fra; immunoprecipitation with anti-HA antibody, protein A and G agarose beads, 4°C, TBSV with 1% NP40; western blot
T1 sequence: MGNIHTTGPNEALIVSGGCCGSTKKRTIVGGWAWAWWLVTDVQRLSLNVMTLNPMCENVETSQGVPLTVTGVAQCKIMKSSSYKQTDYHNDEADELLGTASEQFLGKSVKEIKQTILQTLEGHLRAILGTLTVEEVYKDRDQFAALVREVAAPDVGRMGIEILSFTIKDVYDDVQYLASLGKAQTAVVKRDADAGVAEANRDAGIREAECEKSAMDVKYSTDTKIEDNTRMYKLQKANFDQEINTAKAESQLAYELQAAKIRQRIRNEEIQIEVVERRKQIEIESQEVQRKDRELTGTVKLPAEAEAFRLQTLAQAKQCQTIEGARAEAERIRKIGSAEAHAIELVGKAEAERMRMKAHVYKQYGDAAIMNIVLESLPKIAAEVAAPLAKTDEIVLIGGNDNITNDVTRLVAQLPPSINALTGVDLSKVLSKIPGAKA

Toll7-3xHA (Drosophila) = target: T2, Toll7-3xHA (Drosophila) (UniProt Q7KIN0); experiment: as above
T2 sequence: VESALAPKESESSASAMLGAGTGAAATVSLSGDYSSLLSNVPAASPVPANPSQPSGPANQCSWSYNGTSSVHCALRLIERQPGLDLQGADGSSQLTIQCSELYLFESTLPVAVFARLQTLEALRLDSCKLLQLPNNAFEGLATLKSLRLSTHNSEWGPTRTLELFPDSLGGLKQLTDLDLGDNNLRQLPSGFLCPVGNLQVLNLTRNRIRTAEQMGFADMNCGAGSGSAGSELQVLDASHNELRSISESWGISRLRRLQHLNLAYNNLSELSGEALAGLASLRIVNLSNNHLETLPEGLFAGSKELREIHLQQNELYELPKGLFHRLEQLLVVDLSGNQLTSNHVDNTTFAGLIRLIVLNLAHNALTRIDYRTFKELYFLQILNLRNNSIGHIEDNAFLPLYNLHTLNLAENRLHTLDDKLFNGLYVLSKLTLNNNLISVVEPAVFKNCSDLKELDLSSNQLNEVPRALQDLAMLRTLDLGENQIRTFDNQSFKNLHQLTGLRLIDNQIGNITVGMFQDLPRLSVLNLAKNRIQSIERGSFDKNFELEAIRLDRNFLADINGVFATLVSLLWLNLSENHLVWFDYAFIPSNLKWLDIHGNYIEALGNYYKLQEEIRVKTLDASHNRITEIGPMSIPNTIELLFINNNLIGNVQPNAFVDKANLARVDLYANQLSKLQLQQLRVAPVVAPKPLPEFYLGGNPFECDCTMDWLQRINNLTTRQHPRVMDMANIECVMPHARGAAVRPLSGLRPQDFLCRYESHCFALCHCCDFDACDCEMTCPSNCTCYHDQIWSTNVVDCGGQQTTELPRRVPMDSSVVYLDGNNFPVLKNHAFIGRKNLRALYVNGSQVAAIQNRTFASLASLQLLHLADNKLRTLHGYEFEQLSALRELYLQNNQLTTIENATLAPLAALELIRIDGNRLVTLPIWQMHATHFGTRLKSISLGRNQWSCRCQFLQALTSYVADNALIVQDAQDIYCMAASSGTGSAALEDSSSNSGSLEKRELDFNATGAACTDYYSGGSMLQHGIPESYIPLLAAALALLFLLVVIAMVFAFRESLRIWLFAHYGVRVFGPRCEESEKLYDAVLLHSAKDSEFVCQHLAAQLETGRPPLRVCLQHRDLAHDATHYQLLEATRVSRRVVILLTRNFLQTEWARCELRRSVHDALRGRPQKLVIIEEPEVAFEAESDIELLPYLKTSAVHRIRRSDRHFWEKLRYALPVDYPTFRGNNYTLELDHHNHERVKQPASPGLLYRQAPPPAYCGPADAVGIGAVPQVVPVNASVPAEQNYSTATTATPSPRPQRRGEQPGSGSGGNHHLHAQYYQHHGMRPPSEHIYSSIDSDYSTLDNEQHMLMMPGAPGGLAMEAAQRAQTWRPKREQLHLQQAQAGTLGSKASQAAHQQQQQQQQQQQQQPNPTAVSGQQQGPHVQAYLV

Myc-tagged Fra (Drosophila) (receptor)
binding (Flo-2-3xHA (Drosophila)): binds
binding (Toll7-3xHA (Drosophila)): binds
